Measurements reported in patent publication US20260266848A1, “COMPOSITIONS AND METHODS FOR DIAGNOSING AND TREATING DYSTONIA” (Duke University, priority 2023, published 2026).

B1: RAP2B (protein, UniProt P61225 1-180, looked up)
Ras-related protein Rap-2b: MREYKVVVLGSGGVGKSALTVQFVTGSFIEKYDPTIEDFYRKEIEVDSSPSVLEILDTAGTEQFASMRDLYIKNGQGFILVYSLVNQQSFQDIKPMRDQIIRVKRYERVPMILVGNKVDLEGEREVSYGEGKALAEEWSCPFMETSAKNKASVDELFAEIVRQMNYAAQPNGDEGCCSAC
B2: USP2 (protein, UniProt O75604 1-605, looked up)
Ubiquitin carboxyl-terminal …: MSQLSSTLKRYTESARYTDAHYAKSGYGAYTPSSYGANLAASLLEKEKLGFKPVPTSSFLTRPRTYGPSSLLDYDRGRPLLRPDITGGGKRAESQTRGTERPLGSGLSGGSGFPYGVTNNCLSYLPINAYDQGVTLTQKLDSQSDLARDFSSLRTSDSYRIDPRNLGRSPMLARTRKELCTLQGLYQTASCPEYLVDYLENYGRKGSASQVPSQAPPSRVPEIISPTYRPIGRYTLWETGKGQAPGPSRSSSPGRDGMNSKSAQGLAGLRNLGNTCFMNSILQCLSNTRELRDYCLQRLYMRDLHHGSNAHTALVEEFAKLIQTIWTSSPNDVVSPSEFKTQIQRYAPRFVGYNQQDAQEFLRFLLDGLHNEVNRVTLRPKSNPENLDHLPDDEKGRQMWRKYLEREDSRIGDLFVGQLKSSLTCTDCGYCSTVFDPFWDLSLPIAKRGYPEVTLMDCMRLFTKEDVLDGDEKPTCCRCRGRKRCIKKFSIQRFPKILVLHLKRFSESRIRTSKLTTFVNFPLRDLDLREFASENTNHAVYNLYAVSNHSGTTMGGHYTAYCRSPGTGEWHTFNDSSVTPMSSSQVRTSDAYLLFYELASPPSRM
B3: AP1B1 (protein, UniProt Q10567 1-949, looked up)
AP-1 complex subunit beta-1: MTDSKYFTTTKKGEIFELKAELNSDKKEKKKEAVKKVIASMTVGKDVSALFPDVVNCMQTDNLELKKLVYLYLMNYAKSQPDMAIMAVNTFVKDCEDPNPLIRALAVRTMGCIRVDKITEYLCEPLRKCLKDEDPYVRKTAAVCVAKLHDINAQLVEDQGFLDTLKDLISDSNPMVVANAVAALSEIAESHPSSNLLDLNPQSINKLLTALNECTEWGQIFILDCLANYMPKDDREAQSICERVTPRLSHANSAVVLSAVKVLMKFMEMLSKDLDYYGTLLKKLAPPLVTLLSAEPELQYVALRNINLIVQKRPEILKHEMKVFFVKYNDPIYVKLEKLDIMIRLASQANIAQVLAELKEYATEVDVDFVRKAVRAIGRCAIKVEQSAERCVSTLLDLIQTKVNYVVQEAIVVIKDIFRKYPNKYESVIATLCENLDSLDEPEARAAMIWIVGEYAERIDNADELLESFLEGFHDESTQVQLQLLTAIVKLFLKKPTETQELVQQVLSLATQDSDNPDLRDRGYIYWRLLSTDPVAAKEVVLAEKPLISEETDLIEPTLLDELICYIGTLASVYHKPPSAFVEGGRGVVHKSLPPRTASSESAESPETAPTGAPPGEQPDVIPAQGDLLGDLLNLDLGPPVSGPPLATSSVQMGAVDLLGGGLDSLMGDEPEGIGGTNFVAPPTAAVPANLGAPIGSGLSDLFDLTSGVGTLSGSYVAPKAVWLPAMKAKGLEISGTFTRQVGSISMDLQLTNKALQVMTDFAIQFNRNSFGLAPAAPLQVHAPLSPNQTVEISLPLSTVGSVMKMEPLNNLQVAVKNNIDVFYFSTLYPLHILFVEDGKMDRQMFLATWKDIPNENEAQFQIRDCPLNAEAASSKLQSSNIFTVAKRNVEGQDMLYQSLKLTNGIWVLAELRIQPGNPSCTDLELSLKCRAPEVSQHVYQAYETILKN
B4: PCDHB15 (protein, UniProt Q9Y5E8 27-787, looked up)
Protocadherin beta-15: GWEPRRYSVMEETERGSFVANLANDLGLGVGELAERGARVVSEDNEQGLQLDLQTGQLILNEKLDREKLCGPTEPCIMHFQVLLKKPLEVFRAELLVTDINDHSPEFPEREMTLKIPETSSLGTVFPLKKARDLDVGSNNVQNYNISPNSHFHVSTRTRGDGRKYPELVLDTELDREEQAELRLTLTAVDGGSPPRSGTVQILILVLDANDNAPEFVQALYEVQVPENSPVGSLVVKVSARDLDTGTNGEISYSLYYSSQEIDKPFELSSLSGEIRLIKKLDFETMSSYDLDIEASDGGGLSGKCSVSVKVLDVNDNFPELSISSLTSPIPENSPETEVALFRIRDRDSGENGKMICSIQDDVPFKLKPSVENFYRLVTEGALDRETRAEYNITITITDLGTPRLKTEQSITVLVSDVNDNAPAFTQTSYTLFVRENNSPALHIGSVSATDRDSGTNAQVTYSLLPPRDPHLPLTSLVSINTDNGHLFALQSLDYEALQAFEFRVGATDRGFPALSSEALVRVLVLDANDNSPFVLYPLQNGSAPCTELVPRAAEPGYLVTKVVAVDGDSGQNAWLSYQLLKATEPGLFGVWAHNGEVRTARLLSERDVAKHRLVVLVKDNGEPPRSATATLQVLLVDGFSQPYLPLPEAAPAQAQADSLTVYLVVALASVSSLFLFSVFLFVAVRLCRRSRAASVGRCSVPEGPFPGHLVDVSGTGTLSQSYQYEVCLTGGSESNDFKFLKPIFPNIVSQDSRRKSEFLE
B5: KCNB2 (protein, UniProt Q92953 1-911, looked up)
Potassium voltage-gated …: MAEKAPPGLNRKTSRSTLSLPPEPVDIIRSKTCSRRVKINVGGLNHEVLWRTLDRLPRTRLGKLRDCNTHESLLEVCDDYNLNENEYFFDRHPGAFTSILNFYRTGKLHMMEEMCALSFGQELDYWGIDEIYLESCCQARYHQKKEQMNEELRREAETMREREGEEFDNTCCPDKRKKLWDLLEKPNSSVAAKILAIVSILFIVLSTIALSLNTLPELQETDEFGQLNDNRQLAHVEAVCIAWFTMEYLLRFLSSPNKWKFFKGPLNVIDLLAILPYYVTIFLTESNKSVLQFQNVRRVVQIFRIMRILRILKLARHSTGLQSLGFTLRRSYNELGLLILFLAMGIMIFSSLVFFAEKDEDATKFTSIPASFWWATITMTTVGYGDIYPKTLLGKIVGGLCCIAGVLVIALPIPIIVNNFSEFYKEQKRQEKAIKRREALERAKRNGSIVSMNLKDAFARSMELIDVAVEKAGESANTKDSADDNHLSPSRWKWARKALSETSSNKSFENKYQEVSQKDSHEQLNNTSSSSPQHLSAQKLEMLYNEITKTQPHSHPNPDCQEKPERPSAYEEEIEMEEVVCPQEQLAVAQTEVIVDMKSTSSIDSFTSCATDFTETERSPLPPPSASHLQMKFPTDLPGTEEHQRARGPPFLTLSREKGPAARDGTLEYAPVDITVNLDASGSQCGLHSPLQSDNATDSPKSSLKGSNPLKSRSLKVNFKENRGSAPQTPPSTARPLPVTTADFSLTTPQHISTILLEETPSQGDRPLLGTEVSAPCQGPSKGLSPRFPKQKLFPFSSRERRSFTEIDTGDDEDFLELPGAREEKQVDSSPNCFADKPSDGRDPLREEGSVGSSSPQDTGHNCRQDIYHAVSEVKKDSSQEGCKMENHLFAPEIHSNPGDTGYCPTRETSM
B6: GP9 (protein, UniProt P14770 17-177, looked up)
Platelet glycoprotein IX: TKDCPSPCTCRALETMGLWVDCRGHGLTALPALPARTRHLLLANNSLQSVPPGAFDHLPQLQTLDVTQNPWHCDCSLTYLRLWLEDRTPEALLQVRCASPSLAAHGPLGRLTGYQLGSCGWQLQASWVRPGVLWDVALVAVAALGLALLAGLLCATTEALD
B7: SELENOF (protein, UniProt O60613 32-165, looked up)
Selenoprotein F: FGAEFSSEACRELGFSSNLLCSSCDLLGQFNLLQLDPDCRGCCQEEAQFETKKLYAGAILEVCGUKLGRFPQVQAFVRSDKPKLFRGLQIKYVRGSDPVLKLLDDNGNIAEELSILKWNTDSVEEFLSEKLERI

test system: DYT1 patient plasma derived EVs; assay: Plasma-derived EV proteomics (ExoQuick ULTRA, DIA LC/MS/MS), DYT1 vs Healthy Controls; set-up: species or system human; settings: DYT1 patients as compared to healthy controls
Procedure, shortened: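 Plasma EVs enriched with ExoQuick ULTRA; 500 ng per sample run on EvoSep One UPLC (SPD30 gradient, ~5–30% acetonitrile/0.1% formic acid, 50 C) coupled to Orbitrap Astral. DIA mode: full MS r=240,000, m/z 380-980; 4 m/z fixed windows, HCD 27%.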

Going from B1 to B2, the Log2FC falls from 1.6659 to −1.4420.

B3 and B4 are within 0.2 log units of each other in Log2FC: −1.3386 for the first, −1.3119 for the second.

First: B5
Second: B6
The Log2FC of the first is higher: 2.4057 for the first, 1.4570 for the second.

In the case of B7, the Log2FC is reported as −0.9996.

same assay, conditions: Hs. Plasma EVs (DYT1/WT)

In the case of B3, the Directionality is reported as “DOWN”.

same assay, conditions: Hs. Plasma EVs (DYT1/WT); protein level, human patient derived EVs by genotype

Compared with B1, B3 is lower in Log2_FC: 1.666 for the first, -1.339 for the second.

same assay, conditions: directionality of protein change, human plasma derived EVs, DYT1 vs WT(HC)

In the case of B3, the “Hs. Plasma EVs (DYT1/WT)” value is reported as “DOWN”.

same assay, conditions: protein abundance, DYT1 patients

Compared with B1, B2 is lower in “Mean DYT1” value: 5.827 for the first, 3.197 for the second.

Going from B3 to B4, the “Mean DYT1” value rises from 4.856 to 10.301.

Compared with B5, B6 is higher in “Mean DYT1” value: 7.576 for the first, 8.645 for the second.

In the case of B7, the “Mean DYT1” value is reported as 6.279.

same assay, conditions: protein abundance, healthy controls (HC)

Going from B1 to B2, the “Mean HC” value rises from 4.16 to 4.64.

Compared with B3, B4 is higher in “Mean HC” value: 6.19 for the first, 11.61 for the second.

Going from B5 to B6, the “Mean HC” value rises from 5.17 to 7.19.

In the case of B7, the “Mean HC” value is reported as 7.28.
